## Cleaved PARP in drug-treated melanoma cells

Source: doi:10.1371/journal.pone.0140310, primary screening data, rounded.

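Human melanoma cell lines in 1,536-well plates were treated with two drugs together for 72 h, then fixed, stained and imaged. The read-out is the fraction of cleaved-PARP-positive nuclei, in % of that fraction in the DMSO control; 200 means twice the control level of this apoptosis marker. Concentrations were fixed for each drug; these are the higher of two levels. No replicate spread is given; individual values may be noisy. Basal and induced levels differ widely between cell lines.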 An unselected part of the screen is shown.

Drug key:
XAV939: Oc1nc(-c2ccc(C(F)(F)F)cc2)nc2c1CSCC2 at 10000 nM
sorafenib: CNC(=O)c1cc(Oc2ccc(NC(=O)Nc3ccc(Cl)c(C(F)(F)F)c3)cc2)ccn1 at 2000 nM
pioglitazone: CCc1ccc(CCOc2ccc(CC3SC(=O)NC3=O)cc2)nc1 (centres unmarked) at 10000 nM
TCS401: O=C(O)C(=O)Nc1sc2c(c1C(=O)O)CCNC2 at 8330 nM
midostaurin: CO[C@@H]1[C@H](N(C)C(=O)c2ccccc2)C[C@H]2O[C@]1(C)n1c3ccccc3c3c4c(c5c6ccccc6n2c5c31)C(=O)NC4 at 400 nM
GW9662: O=C(Nc1ccccc1)c1cc([N+](=O)[O-])ccc1Cl at 10000 nM
pazopanib: Cc1ccc(Nc2nccc(N(C)c3ccc4c(C)n(C)nc4c3)n2)cc1S(N)(=O)=O at 2000 nM
CP-690550: C[C@@H]1CCN(C(=O)CC#N)C[C@@H]1N(C)c1ncnc2[nH]ccc12 at 5000 nM
AZD7762: NC(=O)Nc1cc(-c2cccc(F)c2)sc1C(=O)N[C@H]1CCCNC1 at 100 nM

* midostaurin + GW9662 : WM115: 837; WM1716: 971; RPMI-7951: 82.1; RVH-421: 174
* AZD7762 + sorafenib : WM115: 62.2; WM1716: 81.9; RPMI-7951: 191; RVH-421: 218
* midostaurin + CP-690550 : WM115: 167; WM1716: 1610; RPMI-7951: 252; RVH-421: 81.6
* pioglitazone + midostaurin : WM115: 487; WM1716: 801; RPMI-7951: 356; RVH-421: 110
* pioglitazone + TCS401 : WM115: 86.7; WM1716: 71.5; RPMI-7951: 375; RVH-421: 34.0
* pazopanib + midostaurin : WM115: 122; WM1716: 253; RPMI-7951: 190; RVH-421: 102
* GW9662 + XAV939 : WM115: 577; WM1716: 148; RPMI-7951: 104; RVH-421: 175
* pioglitazone + CP-690550 : WM115: 64.2; WM1716: 37.9; RPMI-7951: 48.3; RVH-421: 18.9
* pazopanib + XAV939 : WM115: 27.2; WM1716: 163; RPMI-7951: 78.8; RVH-421: 298
* pazopanib + AZD7762 : WM115: 139; WM1716: 72.8; RPMI-7951: 85.7; RVH-421: 87.5
* TCS401 + AZD7762 : WM115: 133; WM1716: 247; RPMI-7951: 614; RVH-421: 99.1
* XAV939 + CP-690550 : WM115: 27.4; WM1716: 84.5; RPMI-7951: 96.5; RVH-421: 91.3
* sorafenib + GW9662 : WM115: 367; WM1716: 78.0; RPMI-7951: 145; RVH-421: 71.3
* pioglitazone + AZD7762 : WM115: 157; WM1716: 303; RPMI-7951: 545; RVH-421: 112
* midostaurin + AZD7762 : WM115: 249; WM1716: 327; RPMI-7951: 188; RVH-421: 55.1
* sorafenib + midostaurin : WM115: 304; WM1716: 1270; RPMI-7951: 213; RVH-421: 279
* pioglitazone + pazopanib : WM115: 47.2; WM1716: 192; RPMI-7951: 110; RVH-421: 263
* CP-690550 + sorafenib : WM115: 79.6; WM1716: 1210; RPMI-7951: 59.5; RVH-421: 55.8
* AZD7762 + GW9662 : WM115: 157; WM1716: 3540; RPMI-7951: 380; RVH-421: 170
* XAV939 + midostaurin : WM115: 129; WM1716: 78.8; RPMI-7951: 177; RVH-421: 250
* pazopanib + sorafenib : WM115: 154; WM1716: 65.5; RPMI-7951: 290; RVH-421: 72.3
* pazopanib + CP-690550 : WM115: 141; WM1716: 78.4; RPMI-7951: 122; RVH-421: 80.6
* TCS401 + pazopanib : WM115: 61.0; WM1716: 431; RPMI-7951: 187; RVH-421: 67.6
* AZD7762 + XAV939 : WM115: 114; WM1716: 106; RPMI-7951: 388; RVH-421: 78.2
* GW9662 + pioglitazone : WM115: 115; WM1716: 25.2; RPMI-7951: 83.3; RVH-421: 233
* pazopanib + GW9662 : WM115: 63.8; WM1716: 79.0; RPMI-7951: 110; RVH-421: 108
* pioglitazone + XAV939 : WM115: 95.9; WM1716: 51.6; RPMI-7951: 95.9; RVH-421: 75.7
* XAV939 + sorafenib : WM115: 44.8; WM1716: 45.4; RPMI-7951: 221; RVH-421: 35.5
* CP-690550 + GW9662 : WM115: 53.8; WM1716: 63.4; RPMI-7951: 51.0; RVH-421: 114
* TCS401 + midostaurin : WM115: 215; WM1716: 151; RPMI-7951: 58.7; RVH-421: 268
* TCS401 + sorafenib : WM115: 121; WM1716: 204; RPMI-7951: 53.9; RVH-421: 101
* sorafenib + pioglitazone : WM115: 155; WM1716: 102; RPMI-7951: 150; RVH-421: 62.1
* TCS401 + GW9662 : WM115: 97.2; WM1716: 85.8; RPMI-7951: 251; RVH-421: 73.4
* XAV939 + TCS401 : WM115: 91.2; WM1716: 76.6; RPMI-7951: 65.7; RVH-421: 82.2
* CP-690550 + TCS401 : WM115: 2380; WM1716: 19.2; RPMI-7951: 128; RVH-421: 108

For reference, 3 entries once more:

{"drugs": "CP-690550 + GW9662", "WM115": 53.8, "WM1716": 63.4, "RPMI-7951": 51.0, "RVH-421": 114}
{"drugs": "pioglitazone + midostaurin", "WM115": 487, "WM1716": 801, "RPMI-7951": 356, "RVH-421": 110}
{"drugs": "AZD7762 + XAV939", "WM115": 114, "WM1716": 106, "RPMI-7951": 388, "RVH-421": 78.2}